Laboratory results: PMC10550928
Results are given in words; binding and its absence hold for the method and conditions named. In cells and extracts the contact can be indirect. Here binding means that the protein was enriched with, or labelled near, the bait; the list need not be complete. Tags and fused reporters may be left off the sequences shown.

T1: MeeY-FLAG (B. subtilis) (UniProt O34997)
T1 sequence: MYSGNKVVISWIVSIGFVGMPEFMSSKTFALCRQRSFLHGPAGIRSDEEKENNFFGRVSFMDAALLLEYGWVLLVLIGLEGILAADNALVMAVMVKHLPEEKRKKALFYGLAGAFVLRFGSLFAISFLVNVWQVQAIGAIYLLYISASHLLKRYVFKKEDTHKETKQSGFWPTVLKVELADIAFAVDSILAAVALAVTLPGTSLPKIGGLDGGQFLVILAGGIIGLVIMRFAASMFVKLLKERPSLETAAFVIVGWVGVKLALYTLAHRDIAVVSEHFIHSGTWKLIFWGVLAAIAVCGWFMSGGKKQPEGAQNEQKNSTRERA

T2: MeeF-FLAG (B. subtilis) (UniProt O34447)
T2 sequence: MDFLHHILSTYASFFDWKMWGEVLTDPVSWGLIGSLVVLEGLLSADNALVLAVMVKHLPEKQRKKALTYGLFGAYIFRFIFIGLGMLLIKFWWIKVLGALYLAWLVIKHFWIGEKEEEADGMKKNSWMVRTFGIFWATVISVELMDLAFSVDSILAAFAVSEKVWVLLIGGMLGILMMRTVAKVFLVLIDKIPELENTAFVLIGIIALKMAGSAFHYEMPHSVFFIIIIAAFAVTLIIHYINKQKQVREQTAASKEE

B1: AtpF (protein, UniProt P37814 1-170)
chain: MSQLPLELGLSFNGGDILFQLLAMLILLALLKKYALGPLLNIMKQREDHIAGEITSAEEKNKEAQQLIEEQRVLLKEARQESQTLIENAKKLGEKQKEEIIQAARAESERLKEAARTEIVKEKEQAVSALREQVASLSVMIASKVIEKELDEQAQEKLIQDYLKEVGESR
B2: QoxA (protein, UniProt P34957 26-321)
chain: CSNASVLDPKGPVAEQQSDLILLSIGFMLFIVGVVFVLFTIILVKYRDRKGKDNGSYNPEIHGNTFLEVVWTVIPILIVIALSVPTVQTIYSLEKAPEATKDKEPLVVYATSVDWKWVFSYPEQDIETVNYLNIPVDRPILFKISSADSMASLWIPQLGGQKYAMAGMLMDQYLQADKVGTYEGRNANFTGEHFADQEFDVNAVTEKDFNSWVKKTQNEAPKLTKEKYDELMLPENVDELTFSSTHLKYVDHGQDAEYAMEARKRLGYQAVSPHSKTDPFENVKKNEFKKSDDTEE
B3: SecY (protein, UniProt P16336 1-431)
chain: MFKTISNFMRVSDIRNKIIFTLLMLIVFRIGAFIPVPYVNAEALQAQSQMGVFDLLNTFGGGALYQFSIFAMGITPYITASIIIQLLQMDVVPKFTEWSKQGEVGRRKLAQFTRYFTIVLGFIQALGMSYGFNNLANGMLIEKSGVSTYLIIALVLTGGTAFLMWLGEQITSHGVGNGISIIIFAGIVSSIPKTIGQIYETQFVGSNDQLFIHIVKVALLVIAILAVIVGVIFIQQAVRKIAIQYAKGTGRSPAGGGQSTHLPLKVNPAGVIPVIFAVAFLITPRTIASFFGTNDVTKWIQNNFDNTHPVGMAIYVALIIAFTYFYAFVQVNPEQMADNLKKQGGYIPGVRPGKMTQDRITSILYRLTFVGSIFLAVISILPIFFIQFAGLPQSAQIGGTSLLIVVGVALETMKQLESQLVKRNYRGFMKN
B4: GlcD (protein, UniProt P94535 1-470)
chain: MITKDVKEQLIQVSGPENFDDSNAGRLVYSYDATPQYQSMPDAVIAPRNTDEISRILTICSEHRVPIVPRGSGTNLCGGTCPTEGGLVLLFKHMNQILEIDEENLTATVQPGVITLDMIRAVESKGLFYPPDPSSMKISTIGGNINENSGGLRGLKYGVTRDYVIGLEVVLANGDIIRTGGKLAKDVAGYDLTRLFVGSEGTLGIVTEAIVKLVPKPETKKTLLALYENIDAAAQTVSDIIAAKIIPATLEFLDQPTLLVIEDYAKIGLPTSAKAVLLIEQDGPFETVERDMEKIEAICKKGDAVSVQTAQTEEEAFALTEARRSALSALARLKPTTILEDATVPRSEIANMVKAINDIAAKYDISICTFGHAGDGNLHPTCTTDIRNKDEMERVEQAFAEIFEKAIELGGTITGEHGVGEMKAPYLEMKLKKEGIDAMKALKAAFDPRNILNPGKMFAKDARKRVVAER
B5: NupN (protein, UniProt O05252 23-359)
chain: CGNSEKSSGSGEGKNKFSVAMVTDVGGVDDKSFNQSAWEGIQAFGKENGLKKGKNGYDYLQSKSDADYTTNLNKLARENFDLIYGVGYLMEDSISEIADQRKNTNFAIIDAVVDKDNVASITFKEQEGSFLVGVAAALSSKSGKIGFVGGMESELIKKFEVGFRAGVQAVNPKAVVEVKYAGGFDKADVGKATAESMYKSGVDVIYHSAGATGTGVFTEAKNLKKEDPKRDVWVIGVDKDQYAEGQVEGTDDNVTLTSMVKKVDTVVEDVTKKASDGKFPGGETLTYGLDQDGVGISPSKQNLSDDVIKAVDKWKKKIIDGLEIPATEKELKTFKAE
B6: OppB (protein, UniProt P24138 1-311)
chain: MLKYIGRRLVYMIITLFVIVTVTFFLMQAAPGGPFSGEKKLPPEIEANLNAHYGLDKPLFVQYVSYLKSVAMWDFGPSFKYKGQSVNDLISSGFPVSFTLGAEAILLALALGVLFGVIAALYHNKWQDYTVAILTIFGISVPSFIMAAVLQYVFSMKLGLFPVAGWDSWAYTFLPSIALASMPMAFIARLSRSSMIEVLNSDYIRTAKAKGLSRPAVTVRHAIRNALLPVVTYMGPMAAQVLTGSFIIETIFGIPGLGAHFVNSITNRDYTVIMGVTVFFSVILLLCVLIVDVLYGIIDPRIKLSKAKKGA
B7: FhuD (protein, UniProt P37580 24-315)
chain: CGNNSESKGSASDSKGAETFTYKAENGNVKIPKHPKRVVVMADGYYGYFKTLGINVVGAPENVFKNPYYKGKTNGVENIGDGTSVEKVIDLNPDLIIVWTTQGADIKKLEKIAPTVAVKYDKLDNIEQLKEFAKMTGTEDKAEKWLAKWDKKVAAAKTKIKKAVGDKTISIMQTNGKDIYVFGKDFGRGGSIIYKDLGLQATKLTKEKAIDQGPGYTSISLEKLPDFAGDYIFAGPWQSGGDDGGVFESSIWKNLNAVKNGHVYKMDPIGFYFTDPISLEGQLEFITESLTK
B8: QoxB (protein, UniProt P34956 1-649)
chain: MKFKWDEFFVTGDPLILGAQVSIALSTIAIIFVLTYFKKWKWLWSEWITTVDHKKLGIMYIISAVIMLFRGGVDGLMMRAQLALPNNSFLDSNHYNEIFTTHGTIMIIFMAMPFLIGLINVVVPLQIGARDVAFPYLNNLSFWTFFVGAMLFNISFVIGGSPNAGWTSYMPLASNDMSPGPGENYYLLGLQIAGIGTLMTGINFMVTILKMRTKGMTLMRMPMFTWTTLITMVIIVFAFPVLTVALALLSFDRLFGAHFFTLEAGGMPMLWANLFWIWGHPEVYIVILPAFGIFSEIISSFARKQLFGYKAMVGSIIAISVLSFLVWTHHFFTMGNSASVNSFFSITTMAISIPTGVKIFNWLFTMYKGRISFTTPMLWALAFIPNFVIGGVTGVMLAMAAADYQYHNTYFLVSHFHYVLIAGTVFACFAGFIFWYPKMFGHKLNERIGKWFFWIFMIGFNICFFPQYFLGLQGMPRRIYTYGPNDGWTTLNFISTVGAFMMGVGFLILCYNIYYSFRYSTREISGDSWGVGRTLDWATSSAIPPHYNFAVLPEVKSQDAFLHMKEEKTELYPESKFKKIHMPSNSGRPFFMSVAFGLAGFGLVFEWYWMGVVGLIGVLLCMVLRSFEYDNGYYISVDEIKETERKISE
B9: MsmX (protein, UniProt P94360 1-365)
chain: MAELRMEHIYKFYDQKEPAVDDFNLHIADKEFIVFVGPSGCGKSTTLRMVAGLEEISKGDFYIEGKRVNDVAPKDRDIAMVFQNYALYPHMTVYDNIAFGLKLRKMPKPEIKKRVEEAAKILGLEEYLHRKPKALSGGQRQRVALGRAIVRDAKVFLMDEPLSNLDAKLRVQMRAEIIKLHQRLQTTTIYVTHDQTEALTMATRIVVMKDGKIQQIGTPKDVYEFPENVFVGGFIGSPAMNFFKGKLTDGLIKIGSAALTVPEGKMKVLREKGYIGKEVIFGIRPEDIHDELIVVESYKNSSIKAKINVAELLGSEIMIYSQIDNQDFIARIDARLDIQSGDELTVAFDMNKGHFFDSETEVRIR
B10: FtsA (protein, UniProt P28264 1-440)
chain: MNNNELYVSLDIGTSNTKVIVGEMTDDSLNIIGVGNVPSEGLKKGSIVDIDETVHSIRKAFDQAERMVGFPLRKAIVGVNGNYINIQDTNGVVAVSSENKEIQVEDVRRVMEAAQVVSVPHEQLIVDVIPKQFIVDGRDEITDPKKMLGVRLEVEGTLITGSKTILHNLLRCVERAGIEITDICLQPLAAGSAALSKDEKNLGVALIDIGGGSTTIAVFQNGHLTSTRVIPLGGENITKDISIGLRTSTEEAERVKKQLGHAYYDEASEDEIFEVTVIGTNQKQTFTQQEAANIIEARVEEILEIVSEELRSMGITDLPGGFVLTGGQAAMPGVMSLAQDVLQNNVRVASPNYIGVRDPQYMTGVGLIQFACRNARIQGRKIGFKMPEEAIQEIAVSSSEEQEQHHHQNEVQQRPKGKQKTQAEHNKQSKMKKLLSMFWE
B11: YrbF (protein, UniProt O32052 1-89)
chain: MMTGTLGTLVPIILMFAVLYFLLIRPQQKQQKAVRQMQEELKKGDSVVTIGGLHGTVDSIDESKVVIKTGDNTRLTFDRRAIREVSAAE
B12: HtpX (protein, UniProt O31657 1-298)
chain: MAKRIFLFILTNILVLTTIGIVLSVLSSVTGVGTYFTADGGIDPMALLVFSLVVGFVGSFTSLAISRWMAKTMMGVRVLNPKKHSLSYEEQQLVDRVHRLSRSAGLTKMPEVGIYRSPEVNAFATGPSKRRSLVAVSSGLLEQMDDAAVEGVLAHEVAHITNGDMVTMTLLQGIVNTFVVFLSRIAAWIASRFVKEDLAPIVHFIAMIIFQIVFSILGSLVVFAYSRHREFHADRGGADLAGKDKMIHALRTLKSYSSRILEDDQTAVQTLKINGKKRSSLFSTHPDLDERIRRLEAK
B13: FloT (protein, UniProt O32076 1-509)
chain: MTMPIIMIIGVVFFLLIALIAVFITKYRTAGPDEALIVTGSYLGNKNVHVDEGGNRIKIVRGGGTFVLPVFQQAEPLSLLSSKLDVSTPEVYTEQGVPVMADGTAIIKIGGSIGEIATAAEQFLGKSKDDREQEAREVLEGHLRSILGSMTVEEIYKNREKFSQEVQRVASQDLAKMGLVIVSFTIKDVRDKNGYLESLGKPRIAQVKRDADIATAEADKETRIKRAEADKDAKKSELERATEIAEAEKINQLKMAEFRREQDTAKANADQAYDLETARARQQVTEQEMQVKIIERQKQIELEEKEILRRERQYDSEVKKKADADRYSVEQSAAAEKAKQLAEADAKKYSIEAMAKAEAEKVRIDGLAKAEAEKAKGETEAEVIRLKGLAEAEAKEKIAAAFEQYGQAAIFDMIVKMLPEYAKQAAAPLSNIDKITVVDTGGSGESSGANKVTSYATNLMSSLQESLKASSGIDVKEMLENFSGKGNVKQSINELTNEIKEAKTIQKSE

What follows are binders tested against T1, MeeY-FLAG (B. subtilis) (assay: affinity purification with mass spectrometry; anti-FLAG M2 magnetic beads on lysates (1% Triton X-100) of B. subtilis grown overnight in LB with 50 uM Mn; 30 °C for 3 h; washed with 1X PBS; eluted by heating at 95 °C in 2X Laemmli sample buffer; LC-MS/MS; membrane proteins found in the sample but not in the untagged WT controls).
For B1, the binding was “binds”. For B2, the binding was “binds”.

These binders were tested against T2, MeeF-FLAG (B. subtilis) in the same assay as above.
B3 was tested, and the binding was “binds”. B4 was tested, and the binding was “binds”. B5 was tested, and the binding was “binds”. B6 was tested, and the binding was “binds”. B7 was tested, and the binding was “binds”. For B8, the binding was “binds”. In the case of B9, the binding is reported as “binds”. For B10, the binding was “binds”. With B11 the binding was “binds”. B12 was tested, and the binding was “binds”. With B13 the binding was “binds”.
